{
  "source": "patent US20240309081A1",
  "about": "(QYUNS THERAPEUTICS, published 2024)",
  "binders": {"B1": {"name": "QX007N (HZD78-70) (antibody, human IgG1, kappa, V domains shown)", "VH": "EVQLVESGGGLVQPGGSLRLSCAASGFSLSSYHMIWVRQAPGKGLEWVGVIYPNSNIYYATWAKGRFTISRDNSKNTLYLQMNSLRAEDTAVYYCARTIYVHVYSALSIWGQGTLVTVSS", "VL": "AFQMTQSPSSVSASVGDRVTITCQASESVLNEVSWYQQKPGKAPKLLIYFASKLASGVPSRFSGSGSGTDFTLTISSLQPEDFATYYCQQDWSMDNIDNAFGGGTKVEIKR", "notes": "Humanized rabbit antibody, expressed in ExpiCHO-S cells and purified with Protein A; also called humanized 78#"}},
  "target": "interleukin-33 of cynomolgus monkeys (cynomolgus monkey)",
  "assay": "SPR (Biacore T200), same method as Example 2",
  "note": "These are yes or no findings as the source states them, for the method shown. Some results given as binding are weak or reduced against the parent protein; the word gives no strength.",
  "data": [
    {"binder": "B1", "values": [
      {"measurement": "binding", "result": "binds"}
    ]}
  ]
}
